# The list shows a part of the results.
# B1: Gal 10 (Homo sapiens), Q05315 (protein)
# chain: MSLLPVPYTEAASLSTGSTVTIKGRPLVCFLNEPYLQVDFHTEMKEESDIVFHFQVCFGRRVVMNSREYGAWKQQVESKNMPFQDGQEFELSISVLPDKYQVMVNGQSSYTFDHRIKPEAVKMVQVWRDISLTKFNVSYLKR
# Experiments:
# Test in all cases: glycan array binding signal (z-score within array); higher = stronger binding
# Conditions in all cases: glycan notation: IUPAC condensed, linker removed
# [1] = target: Gal(a1-3)[Gal(a1-4)]Gal(b1-4)GlcNAc
# Procedure, shortened: (§1)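 Glycan array data were curated from 3228 arrays in the Consortium for Functional Glycomics database and kept only where the protein sequence was available. Glycan names were converted to IUPAC-condensed notation, and columns mapping to the same glycan were averaged. The binding signal is a within-array Z-score, averaged across arrays of the same protein sequence at different concentrations or buffers and across linkers. Negative Z-scores can be read as non-binding.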
# [2] = target: Gal(a1-4)Gal(b1-3)GlcNAc(b1-2)Man(a1-3)[Gal(a1-4)Gal(b1-3)GlcNAc(b1-2)Man(a1-6)]Man(b1-4)GlcNAc(b1-4)GlcNAc
# Procedure, shortened: as §1
# Gal(a1-4)Gal(b1-4)Glc = target: Gal(a1-4)Gal(b1-4)Glc
# Procedure, shortened: as §1
# Gal(a1-4)Gal(b1-4)GlcNAc = target: Gal(a1-4)Gal(b1-4)GlcNAc
# Procedure, shortened: as §1
# [3] = target: Gal(a1-4)Gal(b1-4)GlcNAc(b1-2)Man(a1-3)[Gal(a1-4)Gal(b1-4)GlcNAc(b1-2)Man(a1-6)]Man(b1-4)GlcNAc(b1-4)GlcNAc
# Procedure, shortened: as §1
# [4] = target: Gal(a1-4)Gal(b1-4)GlcNAc(b1-3)Gal(b1-4)Glc
# Procedure, shortened: as §1
# Gal(a1-4)GlcNAc = target: Gal(a1-4)GlcNAc
# Procedure, shortened: as §1
# Gal(a1-6)Glc = target: Gal(a1-6)Glc
# Procedure, shortened: as §1
# Gal(b1-2)Gal = target: Gal(b1-2)Gal
# Procedure, shortened: as §1
# Gal(b1-3)Gal = target: Gal(b1-3)Gal
# Procedure, shortened: as §1
# Gal(b1-3)Gal(b1-4)GlcNAc = target: Gal(b1-3)Gal(b1-4)GlcNAc
# Procedure, shortened: as §1
# [5] = target: Gal(b1-3)Gal(b1-4)GlcNAc(b1-2)Man(a1-3)[Gal(b1-3)Gal(b1-4)GlcNAc(b1-2)Man(a1-6)]Man(b1-4)GlcNAc(b1-4)GlcNAc
# Procedure, shortened: as §1
# Gal(b1-3)GalNAc = target: Gal(b1-3)GalNAc
# Procedure, shortened: as §1
# [6] = target: Gal(b1-3)GalNAc(a1-3)[Fuc(a1-2)]Gal(b1-4)Glc
# Procedure, shortened: as §1
# [7] = target: Gal(b1-3)GalNAc(a1-3)[Fuc(a1-2)]Gal(b1-4)GlcNAc
# Procedure, shortened: as §1
# Gal(b1-3)GalNAc(b1-3)Gal = target: Gal(b1-3)GalNAc(b1-3)Gal
# Procedure, shortened: as §1
# [8] = target: Gal(b1-3)GalNAc(b1-3)Gal(a1-4)Gal(b1-4)Glc
# Procedure, shortened: as §1
# [9] = target: Gal(b1-3)GalNAc(b1-4)Gal(b1-4)Glc
# Procedure, shortened: as §1
# [10] = target: Gal(b1-3)GalNAc(b1-4)[Neu5Ac(a2-3)]Gal(b1-4)Glc
# Procedure, shortened: as §1
# Gal(b1-3)GlcNAc = target: Gal(b1-3)GlcNAc
# Procedure, shortened: as §1
# [11] = target: Gal(b1-3)GlcNAc(a1-3)Gal(b1-4)GlcNAc
# Procedure, shortened: as §1
# [12] = target: Gal(b1-3)GlcNAc(a1-6)Gal(b1-4)GlcNAc
# Procedure, shortened: as §1
# Gal(b1-3)GlcNAc(b1-2)Man = target: Gal(b1-3)GlcNAc(b1-2)Man
# Procedure, shortened: as §1
# [13] = target: Gal(b1-3)GlcNAc(b1-2)Man(a1-3)[Gal(b1-3)GlcNAc(b1-2)Man(a1-6)]Man(b1-4)GlcNAc(b1-4)GlcNAc
# Procedure, shortened: as §1
# [14] = target: Gal(b1-3)GlcNAc(b1-2)Man(a1-3)[Gal(b1-3)GlcNAc(b1-2)Man(a1-6)]Man(b1-4)GlcNAc(b1-4)[Fuc(a1-6)]GlcNAc
# Procedure, shortened: as §1
# [15] = target: Gal(b1-3)GlcNAc(b1-2)Man(a1-3)[GlcNAc(b1-4)][Gal(b1-3)GlcNAc(b1-2)Man(a1-6)]Man(b1-4)GlcNAc(b1-4)GlcNAc
# Procedure, shortened: as §1
# [16] = target: Gal(b1-3)GlcNAc(b1-2)[Gal(b1-3)GlcNAc(b1-6)]Man(a1-6)[Gal(b1-3)GlcNAc(b1-2)Man(a1-3)]Man(b1-4)GlcNAc(b1-4)GlcNAc
# Procedure, shortened: as §1
# [17] = target: Gal(b1-3)GlcNAc(b1-3)Gal(b1-3)GlcNAc
# Procedure, shortened: as §1
# [18] = target: Gal(b1-3)GlcNAc(b1-3)Gal(b1-4)Glc
# Procedure, shortened: as §1
# [19] = target: Gal(b1-3)GlcNAc(b1-3)Gal(b1-4)GlcNAc
# Procedure, shortened: as §1
# [20] = target: Gal(b1-3)GlcNAc(b1-3)Gal(b1-4)GlcNAc(b1-2)Man(a1-3)[Gal(b1-3)GlcNAc(b1-3)Gal(b1-4)GlcNAc(b1-2)Man(a1-6)]Man(b1-4)GlcNAc(b1-4)GlcNAc
# Procedure, shortened: as §1
# [21] = target: Gal(b1-3)GlcNAc(b1-3)Gal(b1-4)GlcNAc(b1-2)[Gal(b1-3)GlcNAc(b1-3)Gal(b1-4)GlcNAc(b1-6)]Man(a1-6)[Gal(b1-3)GlcNAc(b1-3)Gal(b1-4)GlcNAc(b1-2)Man(a1-3)]Man(b1-4)GlcNAc(b1-4)[Fuc(a1-6)]GlcNAc
# Procedure, shortened: as §1
# [22] = target: Gal(b1-3)GlcNAc(b1-3)Gal(b1-4)GlcNAc(b1-3)Gal(b1-4)GlcNAc(b1-2)[Gal(b1-3)GlcNAc(b1-3)Gal(b1-4)GlcNAc(b1-3)Gal(b1-4)GlcNAc(b1-6)]Man(a1-6)[Gal(b1-3)GlcNAc(b1-3)Gal(b1-4)GlcNAc(b1-3)Gal(b1-4)GlcNAc(b1-2)Man(a1-3)]Man(b1-4)GlcNAc(b1-4)[Fuc(a1-6)]GlcNAc
# Procedure, shortened: as §1
# [23] = target: Gal(b1-3)GlcNAc(b1-3)Gal(b1-4)GlcNAc(b1-6)[Gal(b1-3)GlcNAc(b1-3)]Gal(b1-4)Glc
# Procedure, shortened: as §1
# [24] = target: Gal(b1-3)GlcNAc(b1-3)Gal(b1-4)[Fuc(a1-3)]GlcNAc(b1-6)[Gal(b1-3)GlcNAc(b1-3)]Gal(b1-4)Glc
# Procedure, shortened: as §1
# [25] = target: Gal(b1-3)GlcNAc(b1-3)GalNAc
# Procedure, shortened: as §1
# [26] = target: Gal(b1-3)GlcNAc(b1-6)Gal(b1-4)GlcNAc
# Procedure, shortened: as §1
# [27] = target: Gal(b1-3)GlcNAc(b1-6)GalNAc
# Procedure, shortened: as §1
# [28] = target: Gal(b1-3)GlcNAc(b1-6)[Gal(b1-3)]GalNAc
# Procedure, shortened: as §1
# Gal(b1-3)GlcNAc6S = target: Gal(b1-3)GlcNAc6S
# Procedure, shortened: as §1
# [29] = target: Gal(b1-3)[Fuc(a1-4)]GlcNAc
# Procedure, shortened: as §1
# [30] = target: Gal(b1-3)[Fuc(a1-4)]GlcNAc(b1-2)Man
# Procedure, shortened: as §1
# [31] = target: Gal(b1-3)[Fuc(a1-4)]GlcNAc(b1-2)Man(a1-3)[Gal(b1-3)[Fuc(a1-4)]GlcNAc(b1-2)Man(a1-6)]Man(b1-4)GlcNAc(b1-4)[Fuc(a1-6)]GlcNAc
# Procedure, shortened: as §1
# [32] = target: Gal(b1-3)[Fuc(a1-4)]GlcNAc(b1-3)Gal(b1-3)[Fuc(a1-4)]GlcNAc
# Procedure, shortened: as §1
# [33] = target: Gal(b1-3)[Fuc(a1-4)]GlcNAc(b1-3)Gal(b1-4)GlcNAc
# Procedure, shortened: as §1
binder,measurement,setting,value
B1,glycan array binding signal (z-score),[1],0.625
same,glycan array binding signal (z-score),[2],0.114
same,glycan array binding signal (z-score),Gal(a1-4)Gal(b1-4)Glc,-0.717
same,glycan array binding signal (z-score),Gal(a1-4)Gal(b1-4)GlcNAc,-0.337
same,glycan array binding signal (z-score),[3],-0.131
same,glycan array binding signal (z-score),[4],-0.109
same,glycan array binding signal (z-score),Gal(a1-4)GlcNAc,-0.059
same,glycan array binding signal (z-score),Gal(a1-6)Glc,-0.205
same,glycan array binding signal (z-score),Gal(b1-2)Gal,-0.095
same,glycan array binding signal (z-score),Gal(b1-3)Gal,-0.045
same,glycan array binding signal (z-score),Gal(b1-3)Gal(b1-4)GlcNAc,-0.043
same,glycan array binding signal (z-score),[5],-0.754
same,glycan array binding signal (z-score),Gal(b1-3)GalNAc,0.117
same,glycan array binding signal (z-score),[6],0.424
same,glycan array binding signal (z-score),[7],0.496
same,glycan array binding signal (z-score),Gal(b1-3)GalNAc(b1-3)Gal,-0.683
same,glycan array binding signal (z-score),[8],-0.196
same,glycan array binding signal (z-score),[9],0.344
same,glycan array binding signal (z-score),[10],-0.137
same,glycan array binding signal (z-score),Gal(b1-3)GlcNAc,-0.437
same,glycan array binding signal (z-score),[11],0.167
same,glycan array binding signal (z-score),[12],0.321
same,glycan array binding signal (z-score),Gal(b1-3)GlcNAc(b1-2)Man,-0.235
same,glycan array binding signal (z-score),[13],0.125
same,glycan array binding signal (z-score),[14],0.084
same,glycan array binding signal (z-score),[15],0.208
same,glycan array binding signal (z-score),[16],0.32
same,glycan array binding signal (z-score),[17],-0.609
same,glycan array binding signal (z-score),[18],-0.283
same,glycan array binding signal (z-score),[19],-0.622
same,glycan array binding signal (z-score),[20],1.6
same,glycan array binding signal (z-score),[21],0.035
same,glycan array binding signal (z-score),[22],0.55
same,glycan array binding signal (z-score),[23],0
same,glycan array binding signal (z-score),[24],0.128
same,glycan array binding signal (z-score),[25],-0.812
same,glycan array binding signal (z-score),[26],-0.266
same,glycan array binding signal (z-score),[27],-0.5
same,glycan array binding signal (z-score),[28],1.27
same,glycan array binding signal (z-score),Gal(b1-3)GlcNAc6S,-0.063
same,glycan array binding signal (z-score),[29],0.455
same,glycan array binding signal (z-score),[30],-0.203
same,glycan array binding signal (z-score),[31],0.601
same,glycan array binding signal (z-score),[32],1.04
same,glycan array binding signal (z-score),[33],-0.651

# Two entries picked at random from those above:
binder,measurement,setting,value
B1,glycan array binding signal (z-score),[31],0.601
same,glycan array binding signal (z-score),[2],0.114

# — the supplement of paper PMC8728848
